In the supplement of paper PMC10338343:
± gives the standard deviation. The list shows a part of the results, in another mix than the full data. Many entries were measured with a wide error. This is one part of the list.

Tests used:
[1] = test system: MILI (PIWIL2) piRISC loaded with L1MC piRNA (26 nt); test: pre-steady-state target cleavage rate (min^-1); higher = faster piRNA-guided slicing of the target; conditions: guide: L1MC piRNA 5'p-UAACUAAAUACUAUGCAAGCUGUAGG;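 also: 1 nM active piRISC with 0.1 nM target library at 33 °C single turnover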
Procedure, shortened: (§1)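 Active affinity-purified piRISC carrying one synthetic guide (1 nM) was mixed with a transcribed, DNA-blocked target RNA library […] in HEPES–potassium acetate buffer at 33 °C for 0–8 or 0–960 min, with or without 500 nM GTSF1 partner protein. Uncleaved targets were then sequenced and normalised to depth and to weakly complementary targets. Three trials were pooled, and k3 was capped at 0.0001 min^-1. A burst-and-steady-state fit was applied to obtain the pre-steady-state cleavage rate.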

[2] = test system: EfPiwi piRISC loaded with L1MC piRNA (26 nt); test: pre-steady-state target cleavage rate (min^-1); guide: L1MC piRNA 5'p-UAACUAAAUACUAUGCAAGCUGUAGG; MIWI and MILI are mouse PIWI proteins and EfPiwi is from a freshwater sponge; tags in brackets are library labels; higher = faster piRNA-guided slicing of the target
Procedure, shortened: as §1

[3] = auxiliary factor: none (no GTSF1)
[4] = auxiliary factor: 500 nM Ephydatia muelleri Gtsf1
[5] = auxiliary factor: 500 nM mouse GTSF1
[6] = auxiliary factor: none (no Gtsf1)

Row | Sequence | pre-steady-state target cleavage rate [1, 3] | pre-steady-state target cleavage rate [2, 4] | pre-steady-state target cleavage rate [1, 5] | pre-steady-state target cleavage rate [2, 6]
1 | UCCUGCUACAGCUUGCAUAGUUUUUAGUAA | 0.00123 ± 0.0053 | 0.00424 ± 0.0013 | – | –
2 | UCCUGCUACAGCUUCCAUAGUAUUUACUUA | 0.00045 ± 0.011 | 0.00131 ± 0.0038 | – | –
3 | UCCUGGUACAGCUUGCAUAGUAUUAUAGUUA | – | 0.00555 ± 0.0023 | 0.299 ± 0.034 | –
4 | UCCUGGUACUCCUUGCAUAGUAUUUAGUAA | 0.00215 ± 0.0034 | 0.00302 ± 0.002 | – | –
5 | UCCUGGAUGUCGAUGCAUAGUAAUAAGUUA | 0.00102 ± 0.0074 | 0.00124 ± 0.0061 | – | –
6 | UCCUGGCACAGCUUGCAUAGUAUUUAGUUA | – | 0.0252 ± 0.0092 | 0.289 ± 0.053 | –
7 | UCCUGGAUCAGCUUGCAUAGAAUAUAGUUA | 0.00211 ± 0.0035 | 0.0016 ± 0.0038 | – | –
8 | UCCUGCUACAGCUUGCAUACUUUUUAGUUA | 0.00197 ± 0.0024 | 0.00156 ± 0.0028 | – | –
9 | UCCUGGAUGUCGAUGCAUAGUUUUAAGUUA | 0.00158 ± 0.0044 | 0.000249 ± 0.018 | – | –
10 | UCCUGGAUGUCGAUGCAUAGUAAUUAGUAA | 0.000503 ± 0.015 | 0.000704 ± 0.0057 | – | –
11 | UCCUGCUACAGCUUGCAUAGUAUAAAGUAA | 0.00208 ± 0.003 | 0.00224 ± 0.0017 | – | –
12 | UCCUCCUACAGCUUGCAUAGUAUUUAGUCA | – | 0.00693 ± 0.003 | 0.303 ± 0.025 | –
13 | UCCUGCUACAGCUUGCAUACUAAUUAGUUA | 0.00241 ± 0.0031 | – | – | 0.000572 ± 0.014
14 | UCCUGGAUCUCGUUGCAUAGUAUUUACAAA | 0.00211 ± 0.0037 | 0.000919 ± 0.0071 | – | –
15 | UCCUGGAUGAGCUUGCAUAGUAAUUUGUUA | 0.00184 ± 0.0045 | 0.00104 ± 0.0085 | – | –
16 | UCCUGGUACAGCUUGCAUAGUAUUCAGUUA | 0.00285 ± 0.0032 | – | – | 0.000431 ± 0.024
17 | UCCUGCUACAGCUUGCAUAGUAUUUAGUAA | 0.00285 ± 0.003 | 0.00553 ± 0.0022 | – | –
18 | UCCUGGAUGUCGAACGAUAGGUAUUUAGUUA | – | – | 0.000197 ± 0.016 | 0.000275 ± 0.016
19 | UCCUGCUACAGCAUUGCAUAGUAUUUAGUUA | – | 0.00946 ± 0.0029 | 0.286 ± 0.02 | –
20 | UCCUGGAUCAGCUUGCAUAGUAUAUACUUA | 0.00182 ± 0.0029 | 0.00211 ± 0.0049 | – | –

A second format for some results above.
UCCUGGAUGUCGAUGCAUAGUUUUAAGUUA
  pre-steady-state target cleavage rate [1, 3] = 0.00158 ± 0.0044
  pre-steady-state target cleavage rate [2, 4] = 0.000249 ± 0.018
UCCUGGAUGUCGAUGCAUAGUAAUUAGUAA
  pre-steady-state target cleavage rate [1, 3] = 0.000503 ± 0.015
  pre-steady-state target cleavage rate [2, 4] = 0.000704 ± 0.0057
UCCUGCUACAGCUUGCAUAGUAUAAAGUAA
  pre-steady-state target cleavage rate [1, 3] = 0.00208 ± 0.003
  pre-steady-state target cleavage rate [2, 4] = 0.00224 ± 0.0017
UCCUCCUACAGCUUGCAUAGUAUUUAGUCA
  pre-steady-state target cleavage rate [2, 4] = 0.00693 ± 0.003
  pre-steady-state target cleavage rate [1, 5] = 0.303 ± 0.025

(list continues)

Row | Sequence | pre-steady-state target cleavage rate [1, 3] | pre-steady-state target cleavage rate [2, 4] | pre-steady-state target cleavage rate [1, 5] | pre-steady-state target cleavage rate [2, 6]
21 | UCCUGGAUCAGCUUGCAUACUAUUAAGUUA | 0.00106 ± 0.0062 | 0.00253 ± 0.0023 | – | –
22 | UCCUGCUACAGCAUGCAUAGUAUUUACUUA | 0.00226 ± 0.0051 | 0.0037 ± 0.0024 | – | –
23 | UCCUGGAUGUCGAAGCGUAGUAUUUAGUUA | 0.00141 ± 0.0042 | 0.00123 ± 0.0066 | – | –
24 | UCCUGGAUGAGCUUGCAUACUAUAUAGUUA | 0.000903 ± 0.0089 | 0.000844 ± 0.0061 | – | –
25 | UCCUCCUACAGCUUGCAUAGUUAUUAGUAA | 0.00147 ± 0.0035 | 0.00524 ± 0.0028 | – | –
26 | UCCUGGUUGUGCUUGCAUAGUAUUUAGAAA | 0.00285 ± 0.0031 | 0.00415 ± 0.0022 | – | –
27 | UCCUGGAUGUCGAACGAUAAGUAUUUAGUUA | – | 0.000142 ± 0.044 | 0.000252 ± 0.025 | –
28 | UCCUGGAUGUCGUUGCAAAGUAUUAAGUUA | 0.00184 ± 0.0039 | 0.000328 ± 0.011 | – | –
29 | UCCUGGAUCAGCAUGCAUAGAAUUUAGUUA | 0.00247 ± 0.0025 | 0.000952 ± 0.0036 | – | –
30 | UCCUGGAUCAGCUUGCAUAGAAUUUAGAUA | 0.000921 ± 0.0053 | 0.0036 ± 0.0019 | – | –
31 | UCCUGGAUCAGCUUGGAUAGUAUUUACUUA | 0.000327 ± 0.019 | 0.000346 ± 0.0089 | – | –
32 | UCCUGGAACAGCUUGCAUAGAAUUUACUUA | 0.000839 ± 0.0072 | 0.00113 ± 0.0042 | – | –
33 | UCCUGGAACAGCAUGCAUAGUAUUUACUUA | 0.00132 ± 0.0059 | 0.00102 ± 0.0044 | – | –
34 | UCCUGGAUGUGCUUGCAUACUAUUUAGUAA | 0.000905 ± 0.0059 | 0.00108 ± 0.0066 | – | –
35 | UCCUGGAUCAGCUUGCAUAGUAUUAAGAAA | 0.00109 ± 0.0051 | 0.00459 ± 0.0022 | – | –
36 | UCCUGCUACAGCUUGCAUAGUAUAUUCAAA | 0.00133 ± 0.0055 | 0.00134 ± 0.0024 | – | –
37 | UCCUGGAUGAGCUUGCAUAGUUAUUACAAA | 0.000399 ± 0.014 | – | – | 0.000275 ± 0.024
38 | UCCUCCUACUGCUUGCAUAGUAUUUAGAUA | 0.00127 ± 0.004 | 0.0056 ± 0.0026 | – | –
39 | UCCUGGAUGUCGUUGCAUAGUAUUAAGUAA | 0.00163 ± 0.0044 | 0.00078 ± 0.009 | – | –
40 | UCCUGGUACUCCUUGCAUAGUAUUUAGUUA | 0.00304 ± 0.0036 | 0.00282 ± 0.0031 | – | –

Row | Sequence | pre-steady-state target cleavage rate [1, 3] | pre-steady-state target cleavage rate [2, 4] | pre-steady-state target cleavage rate [1, 5] | pre-steady-state target cleavage rate [2, 6]
41 | UCCUGCUACAGCAUGCAUACUAUUUAGUUA | 0.00325 ± 0.0036 | – | – | 0.00109 ± 0.0074
42 | UCCUGGAUGUCGAUGCAUAGAAUUUAGUAA | – | – | 0.00051 ± 0.013 | < 0.0001
43 | UCCUGGAUGUGCUUGCUUAGUAUUUUGUUA | 0.00333 ± 0.0036 | 0.00057 ± 0.008 | – | –
44 | UCCUGGUACAGCUUGCAUAGUAUUUCGUUA | 0.00216 ± 0.0048 | 0.00191 ± 0.0039 | – | –
45 | UCCUGGAUGAGCUUGCAUAGUAUUUACAAA | 0.00112 ± 0.0048 | – | – | 0.000614 ± 0.012
46 | UCCUGGAUGUCGAAGCAUCAGUAUUUAGUUA | 0.000453 ± 0.013 | 0.000703 ± 0.013 | – | –
47 | UCCUGGAUCAGCUUUGCAUAGUAUUUAGUUA | – | 0.103 ± 0.023 | 0.297 ± 0.016 | –
48 | UCCUGGUACAGCUUGCAUAGUAUGUAGUUA | 0.0014 ± 0.0069 | 0.00155 ± 0.0039 | – | –
49 | UCCUGGAACAGCUUGCAAAGUAUUUACUUA | 0.00214 ± 0.0033 | 0.00154 ± 0.0037 | – | –
50 | UCCUGGAUGUCCUUGCAUAGUAUUUAGCUUA | 0.00197 ± 0.0044 | 0.0051 ± 0.0028 | – | –
51 | UCCUGCUACAGCAUGCAUAGUAUAUAGUUA | – | 0.00599 ± 0.0029 | 0.284 ± 0.03 | –
52 | UCCUGGAUGUCCUUGCAUAGUAUUUAGUGUA | 0.00249 ± 0.0036 | 0.00123 ± 0.0036 | – | –
53 | UCCUGGAUGUCGAAGCAUUGUAUUUUGUUA | 0.000395 ± 0.013 | 0.000246 ± 0.014 | – | –
54 | UCCUGGAUGUCGAUGCAUAGUAUUUCAGUUA | 0.00136 ± 0.0057 | 0.000323 ± 0.014 | – | –
55 | UCCUGGAACAGCAUGCAUAGAAUUUAGUUA | 0.00156 ± 0.004 | 0.00207 ± 0.0021 | – | –
56 | UCCUGGAUCAGCUUGCAUGGUAUUUAGUUA | – | 0.0193 ± 0.0038 | 0.285 ± 0.025 | –
57 | UCCUGGAAGAGCUUGCAUAGUAUUUAGAAA | 0.00211 ± 0.0037 | 0.00533 ± 0.002 | – | –
58 | UCCUGGAUGUCGAACGUUAGUAUUUAGAAA | 0.000166 ± 0.018 | 0.000115 ± 0.079 | – | –
59 | UCCUGGAACAGCUUGCAUAGAAUAUAGUUA | 0.00135 ± 0.0043 | 0.000589 ± 0.0092 | – | –
60 | UCCUGGAUCAGCUUGCAUAGUAUUUAGUUU [g2:g22:cont:t1U] | – | 0.121 ± 0.025 | 0.357 ± 0.019 | –
